Reference: publication PMC5392680
These are yes or no findings as the source states them, for the method shown. Binding seen in cells or lysates may run through a third protein. Some binding calls cover weakened binding; strength is not graded here. Tags and fused reporters may be left off the sequences shown.

By UniProt entry, the sequences of proteins in these tests, tags left out.
UniProt P63208: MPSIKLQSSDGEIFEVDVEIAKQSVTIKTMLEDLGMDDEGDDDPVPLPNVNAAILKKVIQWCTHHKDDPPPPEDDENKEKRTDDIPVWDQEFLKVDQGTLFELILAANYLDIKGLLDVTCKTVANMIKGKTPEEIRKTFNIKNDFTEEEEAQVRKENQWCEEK

What was measured:
[1] = target: T1, cyclin F, endogenous in CEM-GFP T cells (human (endogenous in CEM-GFP)) (UniProt P41002); assay: co-IP; HIV-1 NL4-3-infected (0.5 m.o.i.) CEM-GFP cells harvested 72 h post-infection, endogenous proteins; IP with cyclin F or Vif antibody, protein A- and G-agarose beads, immunoblot
T1 sequence: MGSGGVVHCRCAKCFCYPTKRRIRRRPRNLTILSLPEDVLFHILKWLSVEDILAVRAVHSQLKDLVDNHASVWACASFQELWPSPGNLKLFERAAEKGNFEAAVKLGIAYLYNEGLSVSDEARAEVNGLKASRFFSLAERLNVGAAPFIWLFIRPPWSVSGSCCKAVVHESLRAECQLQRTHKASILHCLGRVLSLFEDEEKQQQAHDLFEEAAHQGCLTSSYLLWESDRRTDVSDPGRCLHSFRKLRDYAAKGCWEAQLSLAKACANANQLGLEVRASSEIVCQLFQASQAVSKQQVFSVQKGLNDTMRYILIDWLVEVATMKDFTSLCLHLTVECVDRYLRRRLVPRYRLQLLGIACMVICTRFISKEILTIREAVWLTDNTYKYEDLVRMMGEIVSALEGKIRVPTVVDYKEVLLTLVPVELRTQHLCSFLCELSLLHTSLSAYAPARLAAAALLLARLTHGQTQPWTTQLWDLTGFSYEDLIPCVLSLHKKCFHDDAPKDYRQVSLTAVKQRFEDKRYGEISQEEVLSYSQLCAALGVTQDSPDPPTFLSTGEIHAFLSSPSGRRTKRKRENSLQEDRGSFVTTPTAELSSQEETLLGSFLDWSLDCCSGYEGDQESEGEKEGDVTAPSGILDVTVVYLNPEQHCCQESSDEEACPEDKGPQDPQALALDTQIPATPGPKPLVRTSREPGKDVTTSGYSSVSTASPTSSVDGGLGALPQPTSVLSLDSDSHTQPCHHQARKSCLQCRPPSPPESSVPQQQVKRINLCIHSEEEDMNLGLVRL

[2] = target: T2, FLAG-cyclin F (pCMV-FLAG-cyclin F) (human) (UniProt P41002); assay: co-IP; HEK293T cells co-transfected with cyclin F and wild-type or CY Mut Vif constructs, lysates 48 h post-transfection; IP with cyclin F or Vif antibody, protein A- and G-agarose beads, immunoblot
T2 sequence: T1 sequence

Row | binding [1] | binding [2] | Substance
1 | binds | – | Skp1, endogenous in CEM-GFP T cells (from UniProt P63208 1-163)
2 | – | binds | Skp1, endogenous in HEK293T cells (from UniProt P63208 1-163)
